For this test, the target named is active form of human KLK7 (huKLK7) (human) (UniProt P49862). Briefly: Biacore sandwich binning, SPINK5 coupled to CM5 chip (legend of FIG. 6).

Sequences of proteins named here, by UniProt entry; tags and fusion partners are left off. Residues count along the entry.
UniProt P49862, residues 30-253: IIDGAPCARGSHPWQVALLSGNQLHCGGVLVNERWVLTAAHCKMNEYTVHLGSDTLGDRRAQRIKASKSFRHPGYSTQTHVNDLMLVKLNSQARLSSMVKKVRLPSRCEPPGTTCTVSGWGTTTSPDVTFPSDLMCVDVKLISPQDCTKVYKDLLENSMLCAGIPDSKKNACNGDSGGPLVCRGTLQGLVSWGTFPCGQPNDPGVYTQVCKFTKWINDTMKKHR

No constants are given. Whether binding was seen depends on the method and setting. Some binding calls cover weakened binding; strength is not graded here.

B1: recombinant human SPINK5 (protein, UniProt Q9NQ38 490-757, looked up)
chain: EAAKEICSEFRDQVRNGTLICTREHNPVRGPDGKMHGNKCAMCASVFKLEEEEKKNDKEEKGKVEAEKVKREAVQELCSEYRHYVRNGRLPCTRENDPIEGLDGKIHGNTCSMCEAFFQQEAKEKERAEPRAKVKREAEKETCDEFRRLLQNGKLFCTRENDPVRGPDGKTHGNKCAMCKAVFQKENEERKRKEEEDQRNAAGHGSSGGGGGNTQDECAEYREQMKNGRLSCTRESDPVRDADGKSYNNQCTMCKAKLEREAERKNEY
Consider B1, for which the binding entry is reported as “binds”.
